The target in the experiment is Tubulin alpha chain (Sus scrofa, UniProt P02550).

Chains of the proteins cited; added tags and fusions are not shown.
UniProt P02550, whole entry, looked up: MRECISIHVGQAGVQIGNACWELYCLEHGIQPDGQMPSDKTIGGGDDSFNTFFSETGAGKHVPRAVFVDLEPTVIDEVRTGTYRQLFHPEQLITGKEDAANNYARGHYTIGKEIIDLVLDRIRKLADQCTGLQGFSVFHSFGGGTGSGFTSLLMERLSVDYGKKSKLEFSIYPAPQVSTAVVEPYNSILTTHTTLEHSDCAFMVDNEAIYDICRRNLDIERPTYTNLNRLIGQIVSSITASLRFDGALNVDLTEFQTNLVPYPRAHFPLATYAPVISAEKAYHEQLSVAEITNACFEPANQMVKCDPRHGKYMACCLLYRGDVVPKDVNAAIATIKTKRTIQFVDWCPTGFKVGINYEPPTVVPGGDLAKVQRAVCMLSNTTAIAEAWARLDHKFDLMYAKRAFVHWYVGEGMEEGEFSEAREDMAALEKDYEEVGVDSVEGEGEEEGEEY

pKi: −log10 of the molar value.

Turning to `COc1cc2c(c(OC)c1OC)-c1ccc(SC)c(=O)cc1[C@@H](NC(C)=O)CC2` [THIOCOLCHICINE], the pKi – broadly, the Ki on a negative log10 scale, so that one unit is a factor of ten – is 6.15.

(Values after ChEMBL document CHEMBL1126003 (Bioorg Med Chem Lett, 1991).)
